Results of single-concentration screens

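Whole-cell growth test on Mycobacterium tuberculosis, read after 3 days in glucose-containing 7H9 medium; the read-out is not stated. Compounds at 50 µM. Direction is inferred from retests: higher values go with more growth inhibition. Of about 69,000 compounds tested this way, about 760 (1.1%) reached 50% or more in at least one test.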

Each number is a percent effect as filed.
The record does not define 0% and 100%; most values in the screen are far below 50% and negative numbers occur (in some assays of this library far below -100).
The compounds are a random part of those screened.
Two or more numbers in one place are separate tests of the same structure; such repeats can differ widely.

| # | SMILES | percent effect |
|---|---|---|
| 1 | `CN(CC(=O)N(C)C(c1ccc(Cl)cc1)c1cccnc1)C1CC1` (stereo not shown) | -28.46 |
| 2 | `CCCS(=O)(=O)N1CCC(Nc2c(F)cc(C#N)cc2F)CC1` | 30.26 |
| 3 | `CC1=C(C(=O)N(C)Cc2n[nH]c3c2CCCCC3)C(C)NC(=O)N1` (stereo not shown) | 28.87 |
| 4 | `CNC(=O)[C@@H]1C[C@@H](N)CN1Cc1ccc2cccc(OC)c2n1` | -3.861 |
| 5 | `CCC(=O)NCCNC(=O)c1nn(C)c(C)c1Cl` | 19.25 & -1.05 |
| 6 | `Cc1ccc(C2CCCCCN2Cc2cn(C)nc2C)cc1` (stereo not shown) | 24.8 |
| 7 | `O=C(c1ccccn1)N1CCN(c2ccc(-c3cccnc3)nn2)CC1` | -22.39 |
| 8 | `COc1cccc(N2CCN(CCC(=O)NC3CCCC3)CC2)c1` | -23.73 & 0.2451 |
| 9 | `CCC(C)(C)NC(=O)c1ccc(NC(=O)NCc2cc(C)no2)cc1` | -21.03 & -0.3547 |
| 10 | `CCC(CO)N(Cc1cccnc1)C(=O)c1ccc(C)[nH]c1=O` (stereo not shown) | -3.048 |
| 11 | `COc1ccc(CNC[C@H]2COCc3nc4cc(F)ccc4n32)cn1` | 7.995 & -6.122 |
| 12 | `c1csc(-c2nc(CNCCn3cccn3)cs2)c1` | -38.3 & 6.827 |
| 13 | `COCCN(c1ccncc1)S(=O)(=O)c1cc(C)c(F)cc1F` | -3.79 & -19.09 |
| 14 | `O=C(O)C(F)(F)F.O=C(O)C(F)(F)F.[H][C@@]12CCCO[C@]1([H])[C@H](OCc1ccncc1)CN2Cc1ccccc1F` | -22.51 |
| 15 | `COc1ccc(OCCN2CCN(Cc3nccn3C)CC2)cc1` | 9.368 |
| 16 | `O=S(=O)(c1ccccc1)N1CCCC(Cn2cncn2)C1` (stereo not shown) | 31.72 |
| 17 | `Cc1nc(CN(C)C2CCN(Cc3c(C)noc3C)C2)no1` (stereo not shown) | -4.842 |
| 18 | `Cc1noc(CCCC(=O)N2CSCC2C(=O)NCC2CC2)n1` (stereo not shown) | 8.614 & -0.4684 |
| 19 | `CCCN(Cc1ccccc1C)C(CC)CO` (stereo not shown) | -1.207 |
| 20 | `Cc1cc(CN(C)Cc2ncc(-c3cccs3)o2)no1` | 21.69 & 12.41 |
| 21 | `Cc1[nH]ccc1C(=O)N(Cc1ccc(O)cc1)CC1CC1` | -7.362 & -4.231 |
| 22 | `CN(Cc1ccco1)C1CCC12CCN(C(=O)C1CCOCC1)CC2.O=C(O)C(F)(F)F` (stereo not shown) | -13.65 |
| 23 | `CS(=O)(=O)N1CCC(CNc2cc(Cl)ccc2C#N)CC1` | 3.284 |
| 24 | `COc1ccccc1C1CCN(C(=O)c2ncccc2OC(C)C)C1` (stereo not shown) | -13.68 |
| 25 | `O=C(NC1CC1)C1=CC2(CCN(CCO)CC2)c2ccccc21.O=C(O)C(F)(F)F` | -16.91 |
| 26 | `O=C(O)C(F)(F)F.[H][C@@]12CCN(S(=O)(=O)N(C)C)C[C@]1(COc1cccnc1)CCO2` | 15.72 |
| 27 | `Cc1nc(C2CCCN2Cc2nc(C)c(C)o2)no1` (stereo not shown) | -6.156 |
| 28 | `Cc1nc(COCC2CN(C(=O)N(C)C)Cc3nccn3C2)cs1.O=C(O)C(F)(F)F` (stereo not shown) | -4.826 |
| 29 | `Cc1cc(C[C@@H]2CCC[C@H]2NCc2ccccc2F)on1.O=C(O)CC(O)(CC(=O)O)C(=O)O` | 19.65 |
| 30 | `CCc1nc(C(=O)N(CC)CC(=O)Nc2cc(Cl)ccc2C)c[nH]1` | -1.271 |
| 31 | `CC(=O)N1CCN(c2ccc3ccc(C(=O)NC4CCCC4)cn23)CC1` | -3.445 |
| 32 | `CC(C)CCC(=O)N1CCC(c2nnc(CN(C)CCO)n2C)CC1` | -4.243 |
| 33 | `CN(C)c1cccc(C2CCN(C3COCC3O)CC2)n1` (stereo not shown) | 31.66 |
| 34 | `COCc1cnc2n1CCN(C(=O)c1cc3ccccc3o1)C2C` (stereo not shown) | -26.88 |
| 35 | `CC(c1ccc(F)cc1F)N1CCN(CCN2CCCC2=O)CC1` (stereo not shown) | -19.84 |
| 36 | `CC(C(=O)N(C)Cc1nnc2n1CCC2)S(C)(=O)=O` (stereo not shown) | -13.22 |
| 37 | `Cc1ccnc(NCCNC(=O)Cc2c(C)[nH]c3c(C)ccc(C)c23)c1` | 23.69 |
| 38 | `Cn1ccnc1-c1noc(NCc2ccc(Cl)cc2)n1` | -12.48 |
| 39 | `O=C(c1ccc[nH]1)N1CCc2cc(S(=O)(=O)N3CCOCC3)ccc2C1` | -37.37 |
| 40 | `CN(Cc1ccc(-n2cccn2)cc1)c1nc(N)nc2c1CCNCC2` | 9.482 |
| 41 | `O=C(OCC1CCN(c2ccccc2)C1)c1cscn1` (stereo not shown) | 9.728 |
| 42 | `Cc1nn(Cc2ccc(F)cc2)c2[nH]nc(N)c12` | -40.14 & -9.127 |
| 43 | `CCc1c(C)nc(-n2nc(C3CC3)cc2NC(C)=O)[nH]c1=O` | -14.94 |
| 44 | `[H][C@@]12CCN[C@]1([H])CN(S(=O)(=O)c1ccc(C)cc1)C2` | 15.89 |
| 45 | `CCO[C@@H]1CCN(C(=O)c2ccnnc2)[C@@H]1Cc1cnn(C)c1` | -23.99 |
| 46 | `CC1c2ncc(COCC3CC3)n2CCN1C(=O)c1ccnnc1` (stereo not shown) | -7.257 |
| 47 | `O=C(Nc1ccc(F)cc1F)NC1(CO)CCOCC1` | -10.28 & -11.87 |
| 48 | `Cc1n[nH]c(C)c1C1CCCN1C(=O)CNC(=O)C(C)(C)C` (stereo not shown) | 14.43 & -6.738 |
| 49 | `CC(C)CN1CC(C(=O)NCCNc2ncccn2)CC1=O` (stereo not shown) | -19.41 |
| 50 | `CCCN(CC(F)(F)F)C(=O)c1cc(F)cc2[nH]cnc12` | -47.16 |
| 51 | `CC(C)n1nccc1C(=O)N1CCC(c2nnsc2S(C)(=O)=O)CC1` | -2.507 |
| 52 | `CCOCC1CN(C(=O)c2cnoc2C)Cc2cn(CC3CC3)nc21` (stereo not shown) | 0.5058 & 11.84 |
| 53 | `COc1cc(C2SCC(=O)Nc3[nH]ncc32)c(OC)c2c1OCO2` (stereo not shown) | 0.6958 & -32.22 |
| 54 | `CCC1(CNCc2ncc[nH]2)CCCC1` | -16.82 |
| 55 | `Cc1nn(C)cc1CN1CCc2nc3sccc3c(=O)n2CC1` | -28 |
| 56 | `CN(C)C(=O)COCc1cncc2c1CCN(Cc1ccccc1)C2.O=C(O)C(F)(F)F.O=C(O)C(F)(F)F` | -12.02 & -4.177 |
| 57 | `[H][C@@]12C[C@@H](C(=O)Nc3cnccn3)CN(S(C)(=O)=O)[C@]1([H])CCO2` | -9.172 & 0.1093 |
| 58 | `CC(C)CC(NCc1cscn1)c1ccccn1` (stereo not shown) | -8.657 |
| 59 | `Cc1ccc(C)c(-c2[nH]c3ccccc3c2C(=O)O)c1` | 1.205 |
| 60 | `CC(=O)N1CCC(C(=O)NCCN2CCCCC2)CC1` | 6.694 & -4.999 |
| 61 | `CC(C)COCCCNC(=O)NC(C)c1ccc(-n2cncn2)cc1` (stereo not shown) | 19.5 |
| 62 | `Cc1cc(C)c(CNc2nc3ccccc3cc2CO)c(=O)[nH]1` | 19.05 |
| 63 | `CC(c1c(F)cccc1F)N1CCN(Cc2nccn2C)CC1` (stereo not shown) | 5.036 |
| 64 | `CCc1cc(CNC(=O)C2CCCN(C(=O)NCC(C)C)C2)[nH]n1` (stereo not shown) | -16.87 |
| 65 | `CCn1ccnc1CN1CCCC(CO)(CCCc2ccccc2)C1` (stereo not shown) | -9.807 & 2.162 |
| 66 | `[H][C@@]12CS(=O)(=O)C[C@]1([H])N(C(=O)c1csc(C)n1)CCN2S(C)(=O)=O` | 2.236 |
| 67 | `c1cnc(N2CCOCC3(CCN(c4cnccn4)CC3)C2)nc1` | -3.731 |
| 68 | `CC(C)(C)c1nnc(NCc2ccc(F)cc2)o1` | -8.044 & -9.913 |
| 69 | `CCn1cc2c(n1)CN(S(=O)(=O)c1ccc(C)cc1)CC2COC` (stereo not shown) | 8.52 & -0.4277 |
| 70 | `O=C(c1ccc(-c2cccc3c2CCNC3)o1)N1CCCC1` | 1.272 |
| 71 | `CC(C)NC(=O)N1CCCC2(CCCCN2)C1` (stereo not shown) | 8.277 |
| 72 | `Cc1cccc(C)c1C(=O)N1C[C@@H](CN2CCOCC2)[C@@H](CO)C1` | -10.08 |

For reference, 9 entries once more:

| SMILES | percent effect |
|---|---|
| `Cc1n[nH]c(C)c1C1CCCN1C(=O)CNC(=O)C(C)(C)C` (stereo not shown) | 14.43 & -6.738 |
| `CC(C)CC(NCc1cscn1)c1ccccn1` (stereo not shown) | -8.657 |
| `CCC(CO)N(Cc1cccnc1)C(=O)c1ccc(C)[nH]c1=O` (stereo not shown) | -3.048 |
| `CC(C)(C)c1nnc(NCc2ccc(F)cc2)o1` | -8.044 & -9.913 |
| `O=C(OCC1CCN(c2ccccc2)C1)c1cscn1` (stereo not shown) | 9.728 |
| `COc1ccc(CNC[C@H]2COCc3nc4cc(F)ccc4n32)cn1` | 7.995 & -6.122 |
| `COc1ccccc1C1CCN(C(=O)c2ncccc2OC(C)C)C1` (stereo not shown) | -13.68 |
| `CN(C)C(=O)COCc1cncc2c1CCN(Cc1ccccc1)C2.O=C(O)C(F)(F)F.O=C(O)C(F)(F)F` | -12.02 & -4.177 |
| `CCO[C@@H]1CCN(C(=O)c2ccnnc2)[C@@H]1Cc1cnn(C)c1` | -23.99 |

Data taken from ChEMBL document CHEMBL3988442, “University of Dundee, Small-Polar-MMV Screening Library” (2021).